Literature values in US12698348B2, “Alkylated cyclodextrin compositions and processes for preparing and using the same” (CYDEX PHARMACEUTICALS, INC., priority 2020, dated 2026).

Details: underivatized cyclodextrin, at saturation

In the case of `OC[C@H]1O[C@@H]2O[C@H]3[C@H](O)[C@@H](O)[C@@H](O[C@H]4[C@H](O)[C@@H](O)[C@@H](O[C@H]5[C@H](O)[C@@H](O)[C@@H](O[C@H]6[C@H](O)[C@@H](O)[C@@H](O[C@H]7[C@H](O)[C@@H](O)[C@@H](O[C@H]1[C@H](O)[C@H]2O)O[C@@H]7CO)O[C@@H]6CO)O[C@@H]5CO)O[C@@H]4CO)O[C@@H]3CO` [α-CD, α-cyclodextrin], the solubility in water is given as “about 145 g/L”.
